{
  "source": "the supplement of paper PMC6411743",
  "test_in_all_cases": "NP40-soluble protein abundance relative to vehicle (solubility fold change) (ratio); higher = more soluble protein in presence of ATP",
  "key": {"NT5C3B": {"target": "T1, NT5C3B (UniProt Q969T7)", "T1 sequence (whole entry)": "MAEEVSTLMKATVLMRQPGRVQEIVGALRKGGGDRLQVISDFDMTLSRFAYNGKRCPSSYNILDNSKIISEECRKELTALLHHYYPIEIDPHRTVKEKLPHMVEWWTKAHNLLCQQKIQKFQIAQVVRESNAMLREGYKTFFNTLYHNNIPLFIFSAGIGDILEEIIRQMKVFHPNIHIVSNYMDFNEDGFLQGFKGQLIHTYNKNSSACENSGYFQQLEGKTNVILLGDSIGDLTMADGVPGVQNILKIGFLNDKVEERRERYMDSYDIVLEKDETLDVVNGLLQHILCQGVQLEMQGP", "procedure,_shortened": "(§1)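 Jurkat crude lysate prepared with a Dounce homogeniser was treated at eight concentrations spanning 0.1 to 10 mM, 10 min at room temperature then 3 min at 37 °C. Solubilisation with 0.8% NP40 and benzonase and ultracentrifugation preceded TMT labelling of the supernatant for LC-MS/MS. Fold change against the detergent-processed vehicle was determined per replicate from vsn-normalised intensities, across three independent experiments.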"}, "NUDT8": {"target": "T2, NUDT8 (UniProt Q8WV74)", "T2 sequence (whole entry)": "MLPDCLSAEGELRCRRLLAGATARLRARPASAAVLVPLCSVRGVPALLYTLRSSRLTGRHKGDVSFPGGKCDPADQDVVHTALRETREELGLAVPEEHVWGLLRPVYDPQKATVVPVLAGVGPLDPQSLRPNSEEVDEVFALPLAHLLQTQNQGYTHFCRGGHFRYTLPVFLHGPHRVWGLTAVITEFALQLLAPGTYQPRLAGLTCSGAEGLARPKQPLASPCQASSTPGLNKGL", "procedure,_shortened": "as §1"}, "PIBF1": {"target": "T3, PIBF1 (UniProt Q8WXW3)", "T3 sequence (whole entry)": "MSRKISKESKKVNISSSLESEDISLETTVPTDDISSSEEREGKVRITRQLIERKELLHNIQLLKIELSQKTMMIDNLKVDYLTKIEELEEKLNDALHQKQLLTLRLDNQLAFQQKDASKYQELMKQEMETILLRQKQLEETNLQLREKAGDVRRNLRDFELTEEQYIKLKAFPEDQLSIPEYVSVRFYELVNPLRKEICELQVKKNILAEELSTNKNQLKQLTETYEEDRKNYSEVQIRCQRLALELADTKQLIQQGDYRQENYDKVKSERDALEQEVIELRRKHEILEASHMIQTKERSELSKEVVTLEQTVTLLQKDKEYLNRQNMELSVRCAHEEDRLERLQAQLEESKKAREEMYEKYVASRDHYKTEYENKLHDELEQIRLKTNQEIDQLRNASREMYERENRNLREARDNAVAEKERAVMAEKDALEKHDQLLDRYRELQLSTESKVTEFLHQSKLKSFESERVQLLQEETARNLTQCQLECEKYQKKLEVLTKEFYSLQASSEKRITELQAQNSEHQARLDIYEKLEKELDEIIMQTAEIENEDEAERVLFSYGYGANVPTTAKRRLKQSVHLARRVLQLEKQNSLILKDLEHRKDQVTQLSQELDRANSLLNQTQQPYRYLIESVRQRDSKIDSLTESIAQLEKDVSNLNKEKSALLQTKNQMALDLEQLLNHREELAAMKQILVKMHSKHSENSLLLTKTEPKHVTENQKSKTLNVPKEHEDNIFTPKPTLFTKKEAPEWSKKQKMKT", "procedure,_shortened": "as §1"}, "RNF166": {"target": "T4, RNF166 (UniProt Q96A37)", "T4 sequence (whole entry)": "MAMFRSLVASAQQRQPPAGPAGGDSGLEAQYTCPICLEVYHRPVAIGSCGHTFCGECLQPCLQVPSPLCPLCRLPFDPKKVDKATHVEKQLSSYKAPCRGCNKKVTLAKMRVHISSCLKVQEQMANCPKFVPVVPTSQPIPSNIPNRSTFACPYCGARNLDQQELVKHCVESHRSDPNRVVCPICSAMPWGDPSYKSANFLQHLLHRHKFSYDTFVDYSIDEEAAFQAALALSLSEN", "procedure,_shortened": "as §1"}, "RNF25": {"target": "T5, RNF25 (UniProt Q96BH1)", "T5 sequence (whole entry)": "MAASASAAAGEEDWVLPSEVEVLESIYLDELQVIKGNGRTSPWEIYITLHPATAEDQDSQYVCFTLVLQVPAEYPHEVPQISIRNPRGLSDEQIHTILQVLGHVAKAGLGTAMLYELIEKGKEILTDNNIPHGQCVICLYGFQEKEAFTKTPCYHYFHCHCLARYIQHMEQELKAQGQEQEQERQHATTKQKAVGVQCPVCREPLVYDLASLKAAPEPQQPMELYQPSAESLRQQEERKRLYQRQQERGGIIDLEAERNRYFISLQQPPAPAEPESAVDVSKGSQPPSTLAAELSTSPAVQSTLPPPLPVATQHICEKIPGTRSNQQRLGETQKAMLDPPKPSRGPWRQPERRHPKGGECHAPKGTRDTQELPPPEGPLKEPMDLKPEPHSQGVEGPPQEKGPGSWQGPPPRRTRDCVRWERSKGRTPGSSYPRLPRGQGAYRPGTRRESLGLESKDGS", "procedure,_shortened": "as §1"}, "SECISBP2L": {"target": "T6, SECISBP2L (UniProt Q93073)", "T6 sequence (whole entry)": "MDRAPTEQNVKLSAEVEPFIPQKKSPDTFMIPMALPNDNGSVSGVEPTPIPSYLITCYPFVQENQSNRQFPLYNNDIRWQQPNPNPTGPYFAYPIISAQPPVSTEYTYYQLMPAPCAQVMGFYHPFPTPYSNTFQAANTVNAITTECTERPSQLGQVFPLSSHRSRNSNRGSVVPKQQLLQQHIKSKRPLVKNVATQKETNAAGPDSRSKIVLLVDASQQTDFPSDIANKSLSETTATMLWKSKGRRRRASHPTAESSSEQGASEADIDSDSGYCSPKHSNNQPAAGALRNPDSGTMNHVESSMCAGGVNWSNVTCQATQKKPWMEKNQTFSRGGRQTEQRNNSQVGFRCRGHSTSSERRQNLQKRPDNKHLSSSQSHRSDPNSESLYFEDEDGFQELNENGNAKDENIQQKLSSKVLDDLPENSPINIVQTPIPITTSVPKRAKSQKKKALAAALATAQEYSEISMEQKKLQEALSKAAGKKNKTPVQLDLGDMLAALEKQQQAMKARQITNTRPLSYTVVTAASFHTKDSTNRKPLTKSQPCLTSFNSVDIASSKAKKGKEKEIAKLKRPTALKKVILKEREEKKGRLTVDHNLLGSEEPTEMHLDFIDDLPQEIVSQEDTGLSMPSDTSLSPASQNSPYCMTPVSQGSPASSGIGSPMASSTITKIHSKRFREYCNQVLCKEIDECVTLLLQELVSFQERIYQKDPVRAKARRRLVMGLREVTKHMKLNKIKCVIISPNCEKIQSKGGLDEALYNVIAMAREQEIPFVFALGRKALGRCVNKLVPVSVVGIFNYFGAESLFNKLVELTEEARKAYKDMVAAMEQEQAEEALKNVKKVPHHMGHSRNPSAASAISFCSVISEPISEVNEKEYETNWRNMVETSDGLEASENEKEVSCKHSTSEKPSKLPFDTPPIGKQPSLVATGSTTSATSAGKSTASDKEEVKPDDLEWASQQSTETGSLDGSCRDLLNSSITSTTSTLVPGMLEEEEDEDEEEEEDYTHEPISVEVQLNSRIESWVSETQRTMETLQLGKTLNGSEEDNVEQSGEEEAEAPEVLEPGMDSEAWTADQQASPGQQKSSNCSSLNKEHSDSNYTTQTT", "procedure,_shortened": "as §1"}},
  "note": "± gives the standard deviation of the averaged measurements. This is a selection; strong and weak results do not stand in their true shares.",
  "data": [
    {"smiles": "Nc1ncnc2c1ncn2[C@@H]1O[C@H](COP(=O)(O)OP(=O)(O)OP(=O)(O)O)[C@@H](O)[C@H]1O", "note": "[adenosine triphosphate]", "values": [
      {"measurement": "NP40-soluble protein abundance", "setting": "NT5C3B; concentration: 6mM", "result": "0.936 ± 0.036"},
      {"measurement": "NP40-soluble protein abundance", "setting": "NT5C3B; concentration: 8mM", "result": "0.96 ± 0.024"},
      {"measurement": "NP40-soluble protein abundance", "setting": "NT5C3B; concentration: 10mM", "result": "0.957 ± 0.016"},
      {"measurement": "NP40-soluble protein abundance", "setting": "NUDT8; concentration: 1mM", "result": "0.983 ± 0.073"},
      {"measurement": "NP40-soluble protein abundance", "setting": "NUDT8; concentration: 2mM", "result": "0.965 ± 0.047"},
      {"measurement": "NP40-soluble protein abundance", "setting": "NUDT8; concentration: 4mM", "result": "0.983 ± 0.037"},
      {"measurement": "NP40-soluble protein abundance", "setting": "NUDT8; concentration: 6mM", "result": "0.921 ± 0.071"},
      {"measurement": "NP40-soluble protein abundance", "setting": "NUDT8; concentration: 8mM", "result": "1 ± 0.019"},
      {"measurement": "NP40-soluble protein abundance", "setting": "NUDT8; concentration: 10mM", "result": "0.938 ± 0.053"},
      {"measurement": "NP40-soluble protein abundance", "setting": "PIBF1; concentration: 1mM", "result": "1.02 ± 0.05"},
      {"measurement": "NP40-soluble protein abundance", "setting": "PIBF1; concentration: 2mM", "result": "1.07 ± 0.11"},
      {"measurement": "NP40-soluble protein abundance", "setting": "PIBF1; concentration: 4mM", "result": "1.07 ± 0.033"},
      {"measurement": "NP40-soluble protein abundance", "setting": "PIBF1; concentration: 6mM", "result": "1.02 ± 0.042"},
      {"measurement": "NP40-soluble protein abundance", "setting": "PIBF1; concentration: 8mM", "result": "1.04 ± 0.074"},
      {"measurement": "NP40-soluble protein abundance", "setting": "PIBF1; concentration: 10mM", "result": "1.01 ± 0.027"},
      {"measurement": "NP40-soluble protein abundance", "setting": "RNF166; concentration: 1mM", "result": "0.825 ± 0.053"},
      {"measurement": "NP40-soluble protein abundance", "setting": "RNF166; concentration: 2mM", "result": "0.922 ± 0.024"},
      {"measurement": "NP40-soluble protein abundance", "setting": "RNF166; concentration: 4mM", "result": "0.887 ± 0.088"},
      {"measurement": "NP40-soluble protein abundance", "setting": "RNF166; concentration: 6mM", "result": "0.962 ± 0.1"},
      {"measurement": "NP40-soluble protein abundance", "setting": "RNF166; concentration: 8mM", "result": "0.907 ± 0.054"},
      {"measurement": "NP40-soluble protein abundance", "setting": "RNF166; concentration: 10mM", "result": "0.927 ± 0.062"},
      {"measurement": "NP40-soluble protein abundance", "setting": "RNF25; concentration: 1mM", "result": "0.989 ± 0.084"},
      {"measurement": "NP40-soluble protein abundance", "setting": "RNF25; concentration: 2mM", "result": "0.954 ± 0.11"},
      {"measurement": "NP40-soluble protein abundance", "setting": "RNF25; concentration: 4mM", "result": "0.956 ± 0.082"},
      {"measurement": "NP40-soluble protein abundance", "setting": "RNF25; concentration: 6mM", "result": "0.935 ± 0.055"},
      {"measurement": "NP40-soluble protein abundance", "setting": "RNF25; concentration: 8mM", "result": "0.89 ± 0.092"},
      {"measurement": "NP40-soluble protein abundance", "setting": "RNF25; concentration: 10mM", "result": "0.882 ± 0.086"},
      {"measurement": "NP40-soluble protein abundance", "setting": "SECISBP2L; concentration: 1mM", "result": "0.914 ± 0.075"},
      {"measurement": "NP40-soluble protein abundance", "setting": "SECISBP2L; concentration: 2mM", "result": "0.946 ± 0.1"},
      {"measurement": "NP40-soluble protein abundance", "setting": "SECISBP2L; concentration: 4mM", "result": "1.03 ± 0.11"},
      {"measurement": "NP40-soluble protein abundance", "setting": "SECISBP2L; concentration: 6mM", "result": "0.974 ± 0.2"},
      {"measurement": "NP40-soluble protein abundance", "setting": "SECISBP2L; concentration: 8mM", "result": "0.964 ± 0.1"},
      {"measurement": "NP40-soluble protein abundance", "setting": "SECISBP2L; concentration: 10mM", "result": "1 ± 0.093"}
    ]}
  ]
}
